## Results of single-concentration screens

Sequences of proteins named here, by UniProt entry; tags and fusion partners are left off. Residues count along the entry.
UniProt P9WNZ1, whole entry: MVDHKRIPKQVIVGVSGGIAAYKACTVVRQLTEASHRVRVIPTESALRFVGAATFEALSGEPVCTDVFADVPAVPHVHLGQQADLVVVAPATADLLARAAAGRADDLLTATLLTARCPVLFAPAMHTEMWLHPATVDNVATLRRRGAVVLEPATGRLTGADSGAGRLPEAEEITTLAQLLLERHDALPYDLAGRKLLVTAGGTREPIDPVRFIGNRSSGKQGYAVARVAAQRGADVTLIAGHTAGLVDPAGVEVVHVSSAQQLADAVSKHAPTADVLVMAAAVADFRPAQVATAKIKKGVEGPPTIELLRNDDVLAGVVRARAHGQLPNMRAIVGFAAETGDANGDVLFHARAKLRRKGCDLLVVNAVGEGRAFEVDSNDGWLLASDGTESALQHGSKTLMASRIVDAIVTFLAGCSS
UniProt Q4DA54, 1-478: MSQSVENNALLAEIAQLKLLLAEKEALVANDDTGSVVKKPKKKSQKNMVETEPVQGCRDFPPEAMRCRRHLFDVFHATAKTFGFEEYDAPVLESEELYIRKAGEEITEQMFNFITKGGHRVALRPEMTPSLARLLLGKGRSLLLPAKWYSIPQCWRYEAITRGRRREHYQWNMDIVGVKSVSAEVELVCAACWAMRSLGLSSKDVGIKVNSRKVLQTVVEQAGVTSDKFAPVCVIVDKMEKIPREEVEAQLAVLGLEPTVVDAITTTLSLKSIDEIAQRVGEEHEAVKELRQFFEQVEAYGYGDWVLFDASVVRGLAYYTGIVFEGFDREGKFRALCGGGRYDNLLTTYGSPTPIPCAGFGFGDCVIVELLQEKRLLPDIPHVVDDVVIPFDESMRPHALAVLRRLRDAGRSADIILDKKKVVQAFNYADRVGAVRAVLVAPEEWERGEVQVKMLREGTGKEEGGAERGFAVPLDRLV

Measurements from “University of Dundee, Small-Polar-MMV Screening Library” (2021), ChEMBL document CHEMBL3988442.

CoaBC: 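Coenzyme A biosynthesis protein CoaBC, Mycobacterium tuberculosis (UniProt P9WNZ1). Enzyme assay of CoaBC with a phosphate dye (Biomol Green) read at 650 nm. Compounds at 30 µM. Direction is inferred from only a few compounds that gave an IC50; most scored high, so higher reads as stronger inhibition. Most strong results did not repeat in a second test. Size under these conditions: about 67,000 compounds, about 40 of them at 50% or above in at least one test.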
TcHisRS: 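Enzyme assay of histidyl-tRNA synthetase; the read-out is not stated. Target: Histidine-tRNA ligase, Trypanosoma cruzi CL Brener (UniProt Q4DA54). Tested at 30 µM. Direction is inferred from retests: higher values go with stronger inhibition. Of about 69,000 compounds tested this way, about 31 (0.045%) reached 50% or more in at least one test.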

Values are the deposited “Percent Effect”, in %. The controls that fix the scale are not given in the record; negative values are as filed. This is an unselected part of the compounds tested. A dash means the value is not listed here; it may have been measured.

| # | structure | CoaBC | TcHisRS |
|---|---|---|---|
| 1 | `Cc1cnn(CCNCc2csc(-c3ccc(C)o3)n2)c1` | 4.847% | 12.28% |
| 2 | `CCOC(=O)Cn1c(=O)c(OCC)nc2cnccc21` | 1.805% | 6.533% |
| 3 | `CN(c1ccncn1)C1CC2(CCN(C(=O)c3cccn3C)C2)C1` (configuration not stated) | 2.913% | 10.99% |
| 4 | `Cc1ccc(C(NC(=O)C2CC2)c2cccc(S(C)(=O)=O)c2)cc1` (configuration not stated) | 1.942% | 10.89% |
| 5 | `CN(CCOc1ccccc1Cl)S(=O)(=O)N1CCOCC1` | 1.29% | 2.463% |
| 6 | `CC(C)c1ncncc1C(=O)N1CCN(Cc2cscn2)CC1` | 3.71% | -3.448% |
| 7 | `CC(=O)N1CC(=O)N(c2cnn(C)c2)CC12CCN(Cc1ccco1)C2` (configuration not stated) | -0.7059% | -0.4808% |
| 8 | `COc1cccc(SCCCn2cnc3c(N)ncnc32)c1` | -2.479% | 9% |
| 9 | `CCOCCCC(=O)N1CCCC1c1nc(-c2ccccc2F)c[nH]1` (configuration not stated) | 6.21% | 4.545% |
| 10 | `Cc1cc(NC(=O)CNc2cccc(OC(F)F)c2C)n(C)n1` | 0.9569% | 2.941% |
| 11 | `Cc1cn2c(n1)CCC(NS(=O)(=O)c1sc(C)nc1C)C2` (configuration not stated) | 0.3654% | 7.738% |
| 12 | `CCOCC1CN(Cc2cnn(C)c2)Cc2nn(C)cc21` (configuration not stated) | 0.9009% | 4.918% |
| 13 | `COc1ccccc1CCNC(=O)CC1(Cn2cnnn2)CCCCC1` | 1.266% | 0% |
| 14 | `Cn1c(SCC(O)COCc2ccc(Cl)cc2)nnc1C1CC1` (configuration not stated) | - | 9.091% |
| 15 | `Cc1ccnn1CCC(=O)N1CCOC(CCc2ccccc2)C1` (configuration not stated) | 0% | 2.793% |
| 16 | `O=C(C[C@@H]1COC[C@H]2CN(C3CCOCC3)C[C@@H]12)Nc1cnccn1` | 1.408% | -6.748% |
| 17 | `CC(SCC(=O)NC(N)=O)c1ccc(Cl)cc1` (configuration not stated) | 9.81% | -0.4926% |
| 18 | `COC(=O)[C@H]1CN(C(=O)NC(C)C)CCN1C(=O)C1CCCCC1` | -4.74% | 2.97% |
| 19 | `Cc1cc(CN(C)C2CCCN(c3cccnn3)C2)on1` (configuration not stated) | -45.09% | 16.18% |
| 20 | `CC(C)(C)n1cc(C(=O)N2CCN(Cc3ccncc3)CC2)cn1` | 6.21% | 6.509% |
| 21 | `COc1ccc(S(=O)(=O)NCC(O)c2sccc2C)cc1Cl` (configuration not stated) | 7.4% | 1.031% |
| 22 | `CN(C)CCOCC1CN(C(=O)[C@H]2CCCO2)Cc2ccnn2C1` (some centres not stated) | 2.665% | 5.946% |
| 23 | `CN(Cc1nncn1C)C(=O)c1cc(COc2ccccc2)[nH]n1` | 3.067% | 4.938% |
| 24 | `CN(C)C(=O)COCc1cncc2c1CCN(Cc1ccccc1)C2` | -14.52% | 14.85% |
| 25 | `CNS(=O)(=O)CC(=O)N1CC2(CCCC2)c2c(F)cccc21` | - | 9.211% |
| 26 | `CN1CC(c2n[nH]c(=O)n2-c2cccc(Cl)c2)CC1=O` (configuration not stated) | 0.8589% | 4.938% |
| 27 | `COc1ccccc1C(O)CNCc1c(C(C)C)nn(C)c1N(C)C` (configuration not stated) | -0.241% | 3.053% |
| 28 | `CSc1nccn1-c1cccc(C(=O)NCCCN2CCOCC2)c1` | 7.179% | 3.788% |
| 29 | `COCC(NC(=O)c1cc(NC(C)=O)ccc1Cl)c1ccnn1C` (configuration not stated) | 1.351% | 11.9% |
| 30 | `Cc1nc(CN2C(=O)CC[C@@H]3[C@H]2CCN3C(=O)NC2CC2)cs1` | 4.113% | 3.867% |
| 31 | `O=C(Cc1ccsc1)N1CCCC(c2n[nH]c3ncccc23)C1` (configuration not stated) | -1.225% | 3.191% |
| 32 | `CSc1ccccc1C(=O)C1CCCN(Cc2ccccn2)C1` (configuration not stated) | -20.19% | 4.348% |
| 33 | `Cc1nn(C)c(N(C)C)c1CNCc1ccc(OCC(N)=O)cc1` | 4.824% | 1.132% |
| 34 | `Cn1nc(C(=O)N(CC(F)(F)F)c2cccc(Cl)c2)ccc1=O` | -4.274% | 5.946% |
| 35 | `Cn1cccc1C(=O)N1CCN(Cc2cccnc2)c2ncccc2C1` | -10.23% | 2.857% |
| 36 | `Cc1nc(CN2CCC3(CCCN(C(=O)c4cnccn4)C3)C2)cs1` (configuration not stated) | -2.832% | 3.279% |
| 37 | `Cc1cc(C2CCCN(C(=O)COc3cc(F)ccc3F)C2)n[nH]1` (configuration not stated) | -0.3241% | 5.051% |
| 38 | `Cc1ccc(C(=O)N2CCN3C[C@H](Oc4cccc(F)c4)C[C@H]3C2)cn1` | 2.258% | 4.478% |
| 39 | `CCc1noc(CN2CCCN(C(N)=O)CC2)n1` | 3.342% | 1.504% |
| 40 | `Cn1c(CN2CCCCC2)nnc1C1CCCN(C(=O)CCC(N)=O)C1` (configuration not stated) | 1.19% | 6.122% |
| 41 | `COc1cccc(CN2CCN(CC(C)C)C(=O)C2C)c1O` (configuration not stated) | -1.229% | 14.81% |
| 42 | `O=C(Nc1cccs1)NC(CCCO)c1ccccc1` (configuration not stated) | -2.417% | 7.212% |

The last 3 entries again:

{"structure": "Cn1c(CN2CCCCC2)nnc1C1CCCN(C(=O)CCC(N)=O)C1", "stereo": "configuration not stated", "CoaBC": 1.19, "TcHisRS": 6.122}
{"structure": "COc1cccc(CN2CCN(CC(C)C)C(=O)C2C)c1O", "stereo": "configuration not stated", "CoaBC": -1.229, "TcHisRS": 14.81}
{"structure": "O=C(Nc1cccs1)NC(CCCO)c1ccccc1", "stereo": "configuration not stated", "CoaBC": -2.417, "TcHisRS": 7.212}